Measurements taken from doi:10.1101/2025.10.27.684836 (bioRxiv, 2025).

Legend:
[1] = biological target: SALL4 QID-ZFC4mut (UniProt Q8BX22); experiment: SPR; conditions: 5 uM ZnCl2 in buffer, no binding (up to 25 uM)
[2] = biological target: T1, SALL4 ZFC4 (UniProt Q8BX22); experiment: SPR; conditions: 5 uM ZnCl2 in buffer, second to QID-ZFC4, any KD only in figure
T1 sequence (looked up, limits assumed): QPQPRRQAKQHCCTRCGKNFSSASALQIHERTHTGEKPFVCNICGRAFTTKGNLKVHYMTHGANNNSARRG

“AGCAGGCCTAATATCGCAC (double strand) [SPR probe, single ATATTA motif]”: no binding [1]; binds more weakly [2].

Construct, isoform or probe ends are uncertain for at least one entry. For some assays here: No signal at the amounts used counts as a negative. For some assays here: Weaker means in comparison with the reference protein, sequence or condition of that experiment. For some assays here: Tags and fusion partners may be left off the protein sequences shown.
